Data reported in publication PMC6040738.
Results are given in words; binding and its absence hold for the method and conditions named. Binding calls can cover weak binding; strength is not graded here. Where a sequence is shown, tags or fusion partners need not be part of it.

Biological target: recombinant Glutathion-S-Transferase (GST)-tagged HIV-1 integrase (GST-IN) (HIV-1)
Assay: AlphaScreen or HTRF; GST-IN constant at 80 nM, His-YB-1 or His-TRN titrated in a 1:3 dilution series; glutathione donor and Ni-chelate acceptor beads; 25 mM Tris/HCl pH 7.5, 150 mM NaCl, 1 mM DTT, 1 mM MgCl2, 0.1% BSA, 0.1% Tween 20; 1 h at 4°C, then 1 h at 30°C with beads; both purified

B1: 6xHistidine-tagged Transportin-SR2 (His-TRN) (protein, UniProt Q9Y5L0-2 1-923)
chain: MEGAKPTLQLVYQAVQALYHDPDPSGKERASFWLGELQRSVHAWEISDQLLQIRQDVESCYFAAQTMKMKIQTSFYELPTDSHASLRDSLLTHIQNLKDLSPVIVTQLALAIADLALQMPSWKGCVQTLVEKYSNDVTSLPFLLEILTVLPEEVHSRSLRIGANRRTEIIEDLAFYSSTVVSLLMTCVEKAGTDEKMLMKVFRCLGSWFNLGVLDSNFMANNKLLALLFEVLQQDKTSSNLHEAASDCVCSALYAIENVETNLPLAMQLFQGVLTLETAYHMAVAREDLDKVLNYCRIFTELCETFLEKIVCTPGQGLGDLRTLELLLICAGHPQYEVVEISFNFWYRLGEHLYKTNDEVIHGIFKAYIQRLLHALARHCQLEPDHEGVPEETDDFGEFRMRVSDLVKDLIFLIGSMECFAQLYSTLKEGNPPWEVTEAVLFIMAAIAKSVDPENNPTLVEVLEGVVRLPETVHTAVRYTSIELVGEMSEVVDRNPQFLDPVLGYLMKGLCEKPLASAAAKAIHNICSVCRDHMAQHFNGLLEIARSLDSFLLSPEAAVGLLKGTALVLARLPLDKITECLSELCSVQVMALKKLLSQEPSNGISSDPTVFLDRLAVIFRHTNPIVENGQTHPCQKVIQEIWPVLSETLNKHRADNRIVERCCRCLRFAVRCVGKGSAALLQPLVTQMVNVYHVHQHSCFLYLGSILVDEYGMEEGCRQGLLDMLQALCIPTFQLLEQQNGLQNHPDTVDDLFRLATRFIQRSPVTLLRSQVVIPILQWAIASTTLDHRDANCSVMRFLRDLIHTGVANDHEEDFELRKELIGQVMNQLGQQLVSQLLHTCCFCLPPYTLPDVAEVLWEIMQVDRPTFCRWLENSLKGLPKETTVGAVTVTHKQLTDFHKQVTSAEECKQVCWALRDFTRLFR
With B1 the binding was “binds”.
